Values quoted from earlier work in US12091409B2, “Ether linked triazoles as NRF2 activators” (ASTEX THERAPEUTICS LIMITED, priority 2016, dated 2024).
For at least one compound, name, drawing or mass did not settle the structure.

Test system: diabetic patients with diabetic nephropathy/chronic kidney disease (CKD)
Conditions: in the clinic; cited from earlier work

## COC(=O)[C@]12CCC(C)(C)C[C@H]1[C@H]1C(=O)C=C3[C@@]4(C)C=C(C#N)C(=O)C(C)(C)[C@@H]4CC[C@@]3(C)[C@]1(C)CC2 [bardoxolone methyl]
  efficacy in diabetic nephropathy/chronic kidney disease: has shown efficacy
